From PMC6364870
No constants are given. Whether binding was seen depends on the method and setting. In cells and extracts the contact can be indirect. Some binding calls cover weakened binding; strength is not graded here.

Sequences of proteins named here, by UniProt entry; tags and fusion partners are left off.
UniProt O70133: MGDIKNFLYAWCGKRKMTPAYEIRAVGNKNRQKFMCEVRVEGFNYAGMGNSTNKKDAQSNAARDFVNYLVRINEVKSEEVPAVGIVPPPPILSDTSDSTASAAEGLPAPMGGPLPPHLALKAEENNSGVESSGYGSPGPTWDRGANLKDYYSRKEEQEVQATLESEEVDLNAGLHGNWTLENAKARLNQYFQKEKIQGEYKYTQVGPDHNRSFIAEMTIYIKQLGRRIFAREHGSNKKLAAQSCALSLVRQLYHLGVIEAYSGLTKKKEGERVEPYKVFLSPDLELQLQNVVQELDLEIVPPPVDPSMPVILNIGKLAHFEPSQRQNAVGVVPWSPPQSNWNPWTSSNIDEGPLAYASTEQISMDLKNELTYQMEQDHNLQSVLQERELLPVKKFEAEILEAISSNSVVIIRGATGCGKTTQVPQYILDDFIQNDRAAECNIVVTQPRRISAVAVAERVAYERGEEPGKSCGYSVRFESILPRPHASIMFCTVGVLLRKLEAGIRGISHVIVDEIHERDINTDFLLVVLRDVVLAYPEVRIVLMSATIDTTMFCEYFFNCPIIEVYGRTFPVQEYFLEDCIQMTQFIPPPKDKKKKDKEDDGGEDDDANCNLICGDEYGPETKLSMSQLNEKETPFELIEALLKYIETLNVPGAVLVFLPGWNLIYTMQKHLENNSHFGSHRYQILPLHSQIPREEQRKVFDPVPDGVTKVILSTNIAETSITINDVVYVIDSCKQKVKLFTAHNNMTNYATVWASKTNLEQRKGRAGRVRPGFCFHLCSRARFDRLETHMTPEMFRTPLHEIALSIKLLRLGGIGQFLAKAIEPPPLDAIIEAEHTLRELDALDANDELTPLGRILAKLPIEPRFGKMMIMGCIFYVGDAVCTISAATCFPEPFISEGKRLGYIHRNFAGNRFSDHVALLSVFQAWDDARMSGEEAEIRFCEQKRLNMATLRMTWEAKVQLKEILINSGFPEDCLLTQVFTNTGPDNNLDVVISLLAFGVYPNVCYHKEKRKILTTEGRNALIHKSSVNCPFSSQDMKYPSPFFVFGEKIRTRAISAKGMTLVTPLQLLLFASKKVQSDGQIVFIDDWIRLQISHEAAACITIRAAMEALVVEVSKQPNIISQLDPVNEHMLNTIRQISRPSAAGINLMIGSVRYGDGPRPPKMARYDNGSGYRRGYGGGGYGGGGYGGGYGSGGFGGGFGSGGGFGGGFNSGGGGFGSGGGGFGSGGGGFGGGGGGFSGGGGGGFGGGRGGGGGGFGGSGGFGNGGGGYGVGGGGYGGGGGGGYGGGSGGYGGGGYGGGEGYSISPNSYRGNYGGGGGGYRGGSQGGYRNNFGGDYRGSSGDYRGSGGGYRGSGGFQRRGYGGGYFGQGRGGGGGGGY
UniProt Q9Z204: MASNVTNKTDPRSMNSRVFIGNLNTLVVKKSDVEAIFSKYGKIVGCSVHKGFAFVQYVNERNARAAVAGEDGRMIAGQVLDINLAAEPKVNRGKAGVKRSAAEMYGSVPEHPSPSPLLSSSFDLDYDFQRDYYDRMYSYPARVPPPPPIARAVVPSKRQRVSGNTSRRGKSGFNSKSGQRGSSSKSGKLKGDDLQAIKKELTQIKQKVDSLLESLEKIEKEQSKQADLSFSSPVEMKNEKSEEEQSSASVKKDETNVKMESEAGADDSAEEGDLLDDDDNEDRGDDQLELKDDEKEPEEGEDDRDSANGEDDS
UniProt Q61464: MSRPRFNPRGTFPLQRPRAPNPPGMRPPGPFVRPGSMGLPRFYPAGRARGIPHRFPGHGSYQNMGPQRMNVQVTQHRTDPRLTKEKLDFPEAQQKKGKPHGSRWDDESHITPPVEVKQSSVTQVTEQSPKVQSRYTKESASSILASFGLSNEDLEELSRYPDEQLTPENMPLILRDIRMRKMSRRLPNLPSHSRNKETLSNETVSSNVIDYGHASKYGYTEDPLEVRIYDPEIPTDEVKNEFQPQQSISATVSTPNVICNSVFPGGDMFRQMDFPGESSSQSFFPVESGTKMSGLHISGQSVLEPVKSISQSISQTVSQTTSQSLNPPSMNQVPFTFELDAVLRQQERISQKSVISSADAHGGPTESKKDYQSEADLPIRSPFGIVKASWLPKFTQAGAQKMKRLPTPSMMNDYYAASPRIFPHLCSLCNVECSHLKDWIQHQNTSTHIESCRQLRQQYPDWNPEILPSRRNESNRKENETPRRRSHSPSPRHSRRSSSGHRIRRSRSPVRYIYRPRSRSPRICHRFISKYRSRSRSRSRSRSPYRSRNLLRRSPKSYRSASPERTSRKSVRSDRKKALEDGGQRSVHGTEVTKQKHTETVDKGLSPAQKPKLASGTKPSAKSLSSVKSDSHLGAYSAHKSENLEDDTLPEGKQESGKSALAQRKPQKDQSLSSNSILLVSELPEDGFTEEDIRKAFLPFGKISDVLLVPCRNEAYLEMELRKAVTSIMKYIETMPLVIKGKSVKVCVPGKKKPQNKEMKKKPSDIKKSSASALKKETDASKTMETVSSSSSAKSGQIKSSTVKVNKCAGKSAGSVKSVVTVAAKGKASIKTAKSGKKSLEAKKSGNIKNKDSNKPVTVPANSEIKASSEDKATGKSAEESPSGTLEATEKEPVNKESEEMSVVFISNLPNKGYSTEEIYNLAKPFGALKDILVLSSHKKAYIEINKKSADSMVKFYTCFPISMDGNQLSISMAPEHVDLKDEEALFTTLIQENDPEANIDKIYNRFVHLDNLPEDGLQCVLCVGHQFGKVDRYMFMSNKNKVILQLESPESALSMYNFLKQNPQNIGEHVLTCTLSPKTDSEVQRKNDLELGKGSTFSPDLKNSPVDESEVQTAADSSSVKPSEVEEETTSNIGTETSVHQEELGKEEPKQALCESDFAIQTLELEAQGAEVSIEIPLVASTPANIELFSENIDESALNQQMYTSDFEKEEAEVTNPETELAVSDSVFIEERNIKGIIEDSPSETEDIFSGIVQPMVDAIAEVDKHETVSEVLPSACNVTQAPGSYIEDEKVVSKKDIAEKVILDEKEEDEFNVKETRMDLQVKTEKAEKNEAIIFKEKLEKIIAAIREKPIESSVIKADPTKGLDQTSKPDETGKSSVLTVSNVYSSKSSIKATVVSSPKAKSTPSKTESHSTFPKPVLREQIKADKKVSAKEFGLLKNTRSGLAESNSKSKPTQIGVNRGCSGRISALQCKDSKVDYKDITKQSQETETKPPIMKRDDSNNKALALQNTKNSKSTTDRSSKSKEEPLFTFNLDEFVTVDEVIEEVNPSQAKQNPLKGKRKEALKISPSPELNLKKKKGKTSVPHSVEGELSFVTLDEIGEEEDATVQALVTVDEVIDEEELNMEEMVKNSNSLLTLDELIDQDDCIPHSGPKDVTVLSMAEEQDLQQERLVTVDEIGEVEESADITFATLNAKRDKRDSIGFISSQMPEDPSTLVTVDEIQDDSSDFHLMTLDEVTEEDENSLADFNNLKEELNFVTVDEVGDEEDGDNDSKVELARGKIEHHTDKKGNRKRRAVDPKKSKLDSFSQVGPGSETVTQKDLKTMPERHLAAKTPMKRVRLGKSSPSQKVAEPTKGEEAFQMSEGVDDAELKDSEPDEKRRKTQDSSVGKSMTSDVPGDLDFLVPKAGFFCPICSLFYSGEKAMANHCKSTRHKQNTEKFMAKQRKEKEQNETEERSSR
UniProt O09106: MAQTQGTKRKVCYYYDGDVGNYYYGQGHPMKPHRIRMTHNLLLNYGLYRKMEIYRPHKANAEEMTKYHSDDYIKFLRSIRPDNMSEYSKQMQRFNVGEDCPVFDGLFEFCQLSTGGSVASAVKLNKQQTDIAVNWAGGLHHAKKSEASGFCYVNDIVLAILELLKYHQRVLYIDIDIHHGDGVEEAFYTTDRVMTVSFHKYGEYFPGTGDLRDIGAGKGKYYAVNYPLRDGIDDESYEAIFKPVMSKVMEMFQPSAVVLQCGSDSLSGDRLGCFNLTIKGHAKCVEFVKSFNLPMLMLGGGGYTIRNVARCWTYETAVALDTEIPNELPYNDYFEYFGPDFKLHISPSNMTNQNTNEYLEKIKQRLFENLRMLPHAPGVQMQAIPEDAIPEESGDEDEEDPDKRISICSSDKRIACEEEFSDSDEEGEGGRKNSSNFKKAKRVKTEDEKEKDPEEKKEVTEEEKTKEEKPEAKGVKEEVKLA

T1: SATB2 (mouse (endogenous in cortex)) (UniProt Q8VI24)
T1 sequence: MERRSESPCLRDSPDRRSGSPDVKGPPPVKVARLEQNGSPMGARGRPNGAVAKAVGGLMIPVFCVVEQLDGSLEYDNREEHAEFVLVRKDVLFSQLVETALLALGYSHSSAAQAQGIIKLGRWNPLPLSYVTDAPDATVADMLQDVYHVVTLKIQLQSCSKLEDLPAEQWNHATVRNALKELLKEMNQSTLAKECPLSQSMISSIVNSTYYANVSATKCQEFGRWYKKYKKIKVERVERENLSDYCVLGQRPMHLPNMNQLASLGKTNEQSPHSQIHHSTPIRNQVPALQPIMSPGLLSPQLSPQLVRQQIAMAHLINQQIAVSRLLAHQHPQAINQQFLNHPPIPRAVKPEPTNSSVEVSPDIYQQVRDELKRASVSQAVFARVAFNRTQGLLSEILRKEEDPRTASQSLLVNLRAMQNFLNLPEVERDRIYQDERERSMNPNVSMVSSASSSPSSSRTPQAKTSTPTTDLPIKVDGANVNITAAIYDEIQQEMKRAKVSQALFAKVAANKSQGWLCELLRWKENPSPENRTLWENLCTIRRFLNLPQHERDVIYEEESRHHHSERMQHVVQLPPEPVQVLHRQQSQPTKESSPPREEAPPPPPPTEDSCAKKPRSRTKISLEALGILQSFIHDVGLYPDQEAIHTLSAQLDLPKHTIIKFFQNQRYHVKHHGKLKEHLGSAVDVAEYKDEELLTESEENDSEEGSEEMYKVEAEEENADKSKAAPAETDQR


Biological target: T1, SATB2 (mouse (endogenous in cortex))
Test: co-IP; anti-SATB2 on protein G Dynabeads, 500 μg of cortical lysate of control and SATB2-deficient mice, overnight 4°C; immunoblot with antibodies against the partners

Molecule | binding
ATP-dependent RNA helicase A (DHX9) (from UniProt O70133 1-1380) | binds
HNRNPC (from UniProt Q9Z204 1-313) | binds
ZNF638 (from UniProt Q61464 1-1960) | binds
histone deacetylase 1 (HDAC1) (from UniProt O09106 1-482) | binds
Heterogeneous nuclear ribonucleoprotein L (HNRNPL) (protein, UniProt Q8R081 1-586) MSRRLLPRAEKRRRRLEQRQQPDEQLRRAGAMVKMAAAGGGGGGGRYYGGGNEGGRAPKRLKTENAGDQHGGGGGGGSGAAGGGGGENYDDPHKTPASPVVHIRGLIDGVVEADLVEALQEFGPISYVVVMPKKRQALVEFEDVLGACNAVNYAADNQIYIAGHPAFVNYSTSQKISRPGDSDDSRSVNSVLLFTILNPIYSITTDVLYTICNPCGPVQRIVIFRKNGVQAMVEFDSVQSAQRAKASLNGADIYSGCCTLKIEYAKPTRLNVFKNDQDTWDYTNPNLSGQGDPGSNPNKRQRQPPLLGDHPAEYGGPHGGYHSHYHDEGYGPPPPHYEGRRMGPPVGGHRRGPSRYGPQYGHPPPPPPPPDYGPHADSPVLMVYGLDQSKMNCDRVFNVFCLYGNVEKVKFMKSKPGAAMVEMADGYAVDRAITHLNNNFMFGQKMNVCVSKQPAIMPGQSYGLEDGSCSYKDFSESRNNRFSTPEQAAKNRIQHPSNVLHFFNAPLEVTEENFFEICDELGVKRPTSVKVFSGKSERSSSGLLEWDSKSDALETLGFLNHYQMKNPNGPYPYTLKLCFSTAQHAS | binds
HNRNPL-like (protein, UniProt Q921F4 1-591) MSSSSSSSPKEETYEEDREFESQAKRLKTEEGEIVYSAEESENRQEATPQAGSDSDSGGGDGGDGDGGSGGGGDGEEGEGGEEGDEGDGDEGGSGGDEGGSGGGPRSMPLSTEGGGSHHKVSVSPVVHVRGLCESVVEADLVEALEKFGTICYVMMMPFKRQALVEFENIDSAKECVTFAADVPVYIAGQQAFFNYSTSKRITRPGNTDDPSGGNKVLLLSIQNPLYPITVDVLYTVCNPVGKVQRIVIFKRNGIQAMVEFESVLCAQKAKAALNGADIYAGCCTLKIEYARPTRLNVIRNDNDSWDYTKPYLGRRDRGKGRQRQAILGDHPSSFRHDGYGSHGPLLPLPSRYRMGSRDTPELVAYPLPQASSSYMHGGSPSGSVVMVSGLHQLKMNCSRVFNLFCLYGNIEKVKFMKTIPGTALVEMGDEYAVERAVTHLNNVKLFGKRLNVCVSKQHSVVPSQIFELEDGTSSYKDFAMSKNNRFTSAGQASKNIIQPPSCVLHYYNVPLCVTEETFTKLCNDHEVLPFIKYKVFDAKASAKTLSGLLEWKCKTDAVEALTALNHYQIRVPNGSNPYTLKLCFSTSSHL | binds
BAF (barrier-to-autointegration factor) (protein, UniProt O54962 1-89) MTTSQKHRDFVAEPMGEKPVGSLAGIGDVLSKRLEERGFDKAYVVLGQFLVLKKDEDLFREWLKDTCGANAKQSRDCFGCLREWCDAFL | binds
CHMP3 (protein, UniProt Q9CQ10 1-224) MGLFGKTQEKPPKELVNEWSLKIRKEMRVVDRQIRDIQREEEKVKRSVKDAAKKGQKEVCVVLAKEMIRSRKAVSKLYASKAHMNSVLMGMKNQLAVLRVAGSLQKSTEVMKAMQSLVKIPEIQATMRELSKEMMKAGIIEEMLEDTFESMDDQEEMEEAAEMEIDRILFEITAGALGKAPSKVTDALPEPEPAGAMAASEEGEEEEDEEDLEAMQSRLATLRS | binds
